We go through 11 molecules from paper PMC12894719.

By UniProt entry, the sequences of proteins in these tests, tags left out.
UniProt Q13114: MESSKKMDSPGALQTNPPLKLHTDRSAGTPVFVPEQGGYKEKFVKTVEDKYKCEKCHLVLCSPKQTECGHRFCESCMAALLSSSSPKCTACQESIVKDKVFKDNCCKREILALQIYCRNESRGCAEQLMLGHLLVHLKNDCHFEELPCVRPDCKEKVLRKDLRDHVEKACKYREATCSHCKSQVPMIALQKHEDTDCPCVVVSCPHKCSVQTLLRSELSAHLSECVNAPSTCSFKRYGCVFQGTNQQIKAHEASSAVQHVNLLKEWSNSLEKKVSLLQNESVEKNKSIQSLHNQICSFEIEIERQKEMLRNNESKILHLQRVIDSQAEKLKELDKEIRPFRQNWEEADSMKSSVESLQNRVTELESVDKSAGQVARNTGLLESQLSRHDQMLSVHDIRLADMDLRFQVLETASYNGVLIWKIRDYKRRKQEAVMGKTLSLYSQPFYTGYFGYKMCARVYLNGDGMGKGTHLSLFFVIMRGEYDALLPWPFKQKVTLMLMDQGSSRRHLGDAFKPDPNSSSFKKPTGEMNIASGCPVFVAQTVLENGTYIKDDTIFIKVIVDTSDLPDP
UniProt O14964: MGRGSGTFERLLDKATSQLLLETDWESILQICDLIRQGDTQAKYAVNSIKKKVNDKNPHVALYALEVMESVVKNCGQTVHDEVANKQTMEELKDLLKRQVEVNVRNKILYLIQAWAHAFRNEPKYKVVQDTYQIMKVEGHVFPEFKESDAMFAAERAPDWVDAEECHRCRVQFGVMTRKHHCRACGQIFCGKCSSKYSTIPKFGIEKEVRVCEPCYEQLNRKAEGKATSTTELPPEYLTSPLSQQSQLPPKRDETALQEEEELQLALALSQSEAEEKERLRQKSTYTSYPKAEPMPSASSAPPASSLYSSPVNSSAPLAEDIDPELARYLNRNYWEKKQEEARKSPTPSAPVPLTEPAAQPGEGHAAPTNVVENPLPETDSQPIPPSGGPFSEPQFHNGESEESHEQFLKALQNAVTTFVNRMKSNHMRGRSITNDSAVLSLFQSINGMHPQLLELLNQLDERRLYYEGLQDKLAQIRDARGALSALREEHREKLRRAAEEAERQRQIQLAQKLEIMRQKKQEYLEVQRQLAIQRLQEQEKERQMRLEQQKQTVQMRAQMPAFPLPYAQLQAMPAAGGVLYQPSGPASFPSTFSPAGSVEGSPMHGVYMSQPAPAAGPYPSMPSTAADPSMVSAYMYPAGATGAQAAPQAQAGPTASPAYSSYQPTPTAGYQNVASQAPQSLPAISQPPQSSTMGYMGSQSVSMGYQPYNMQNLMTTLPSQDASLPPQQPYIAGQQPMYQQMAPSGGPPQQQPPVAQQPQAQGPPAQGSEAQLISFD
UniProt Q14258: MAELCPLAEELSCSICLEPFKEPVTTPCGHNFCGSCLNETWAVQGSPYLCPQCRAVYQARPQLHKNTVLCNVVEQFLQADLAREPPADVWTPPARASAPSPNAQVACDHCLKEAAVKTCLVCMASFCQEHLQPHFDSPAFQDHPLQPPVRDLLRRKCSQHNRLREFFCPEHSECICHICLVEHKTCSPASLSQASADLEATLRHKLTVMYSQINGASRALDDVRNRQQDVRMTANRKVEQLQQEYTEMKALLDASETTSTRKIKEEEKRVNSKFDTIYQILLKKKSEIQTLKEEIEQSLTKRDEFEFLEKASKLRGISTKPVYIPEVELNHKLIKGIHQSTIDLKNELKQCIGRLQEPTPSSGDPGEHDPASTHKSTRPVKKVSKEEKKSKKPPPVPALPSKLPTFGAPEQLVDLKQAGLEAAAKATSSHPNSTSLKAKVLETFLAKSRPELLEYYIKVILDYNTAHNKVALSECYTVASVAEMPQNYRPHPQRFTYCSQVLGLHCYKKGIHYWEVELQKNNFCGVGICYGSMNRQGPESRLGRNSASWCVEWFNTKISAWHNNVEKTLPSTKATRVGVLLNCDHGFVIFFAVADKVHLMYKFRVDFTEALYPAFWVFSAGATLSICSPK
UniProt Q8WUM9: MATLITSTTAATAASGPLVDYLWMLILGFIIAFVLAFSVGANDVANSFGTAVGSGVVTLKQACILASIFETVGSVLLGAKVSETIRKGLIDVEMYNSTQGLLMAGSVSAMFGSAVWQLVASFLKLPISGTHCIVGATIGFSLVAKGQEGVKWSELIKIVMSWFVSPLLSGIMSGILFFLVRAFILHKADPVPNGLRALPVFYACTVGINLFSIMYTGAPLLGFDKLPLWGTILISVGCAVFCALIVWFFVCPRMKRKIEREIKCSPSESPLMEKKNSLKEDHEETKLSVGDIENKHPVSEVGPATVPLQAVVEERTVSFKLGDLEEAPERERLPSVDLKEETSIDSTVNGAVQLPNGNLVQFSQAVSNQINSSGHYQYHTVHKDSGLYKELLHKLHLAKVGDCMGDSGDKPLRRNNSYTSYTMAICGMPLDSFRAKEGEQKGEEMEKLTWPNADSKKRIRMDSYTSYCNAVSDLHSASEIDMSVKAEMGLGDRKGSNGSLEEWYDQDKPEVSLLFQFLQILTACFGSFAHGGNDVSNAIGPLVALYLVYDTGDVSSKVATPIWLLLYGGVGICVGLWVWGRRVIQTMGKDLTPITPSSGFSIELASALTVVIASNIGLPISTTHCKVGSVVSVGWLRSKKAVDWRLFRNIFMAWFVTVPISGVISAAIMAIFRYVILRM
UniProt Q92783: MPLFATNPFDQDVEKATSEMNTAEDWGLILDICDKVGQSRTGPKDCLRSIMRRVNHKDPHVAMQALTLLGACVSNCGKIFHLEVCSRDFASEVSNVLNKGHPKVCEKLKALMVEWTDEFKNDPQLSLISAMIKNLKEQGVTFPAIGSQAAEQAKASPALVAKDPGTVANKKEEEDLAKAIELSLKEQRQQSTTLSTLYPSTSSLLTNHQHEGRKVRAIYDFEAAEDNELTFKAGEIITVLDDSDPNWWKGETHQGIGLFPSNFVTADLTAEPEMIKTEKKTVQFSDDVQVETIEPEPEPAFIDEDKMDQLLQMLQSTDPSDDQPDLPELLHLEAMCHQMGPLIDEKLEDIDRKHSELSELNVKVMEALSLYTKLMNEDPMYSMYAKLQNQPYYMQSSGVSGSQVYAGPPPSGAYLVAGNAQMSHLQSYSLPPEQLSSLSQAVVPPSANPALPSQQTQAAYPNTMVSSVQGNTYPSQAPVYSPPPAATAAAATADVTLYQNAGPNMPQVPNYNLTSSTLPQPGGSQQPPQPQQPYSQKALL

Test [1] has as its target T1, HA-BirA-TRIM2^WT (human) (UniProt Q9C040).
T1 sequence: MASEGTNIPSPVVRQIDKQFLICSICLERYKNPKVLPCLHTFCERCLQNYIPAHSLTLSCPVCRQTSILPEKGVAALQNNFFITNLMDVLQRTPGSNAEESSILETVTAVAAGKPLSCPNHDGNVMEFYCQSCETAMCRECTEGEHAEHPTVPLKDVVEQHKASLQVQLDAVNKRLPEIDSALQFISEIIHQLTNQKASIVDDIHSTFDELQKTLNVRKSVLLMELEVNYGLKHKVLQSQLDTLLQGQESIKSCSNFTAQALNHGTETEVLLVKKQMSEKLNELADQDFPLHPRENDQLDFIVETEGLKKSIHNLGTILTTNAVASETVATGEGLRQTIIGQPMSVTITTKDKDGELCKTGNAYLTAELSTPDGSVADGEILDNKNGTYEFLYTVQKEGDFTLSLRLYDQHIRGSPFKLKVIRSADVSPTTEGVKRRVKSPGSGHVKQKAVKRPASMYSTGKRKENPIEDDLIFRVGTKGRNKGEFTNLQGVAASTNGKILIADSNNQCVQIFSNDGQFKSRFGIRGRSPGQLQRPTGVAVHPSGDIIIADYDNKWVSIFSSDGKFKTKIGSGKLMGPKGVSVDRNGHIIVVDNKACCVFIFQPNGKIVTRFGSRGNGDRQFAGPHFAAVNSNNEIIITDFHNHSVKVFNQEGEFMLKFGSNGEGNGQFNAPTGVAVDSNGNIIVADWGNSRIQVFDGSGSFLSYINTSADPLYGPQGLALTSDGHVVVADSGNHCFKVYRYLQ
As to the kind of experiment: proximity labelling; ubiquitin-specific proximity labelling: HEK 293-T co-transfected with AviTag-Ub and HA-BirA-TRIM2, 100 µM biotin, 0.5 µM Carfilzomib for 5 h; streptavidin pull-down, TMT quantitative MS; enrichment against HA-BirA and HA-BirA-TRIM2 C60S.

For test [2], the target named is 3x flag-tagged TMEM106B^WT (full-length) (human) (UniProt Q9NUM4). Put plainly: affinity purification with mass spectrometry; anti-flag magnetic beads with lysate of HEK 293-T transfected with flag-TMEM106B variants (150 mM NaCl lysis buffer), 16 h at 4 °C, elution with 3X FLAG peptide, quantitative MS; changes relative to WT.
The target of test [3] is 3x flag-tagged TMEM106B^K3A/K14A (full-length) (human) (UniProt Q9NUM4). The test is described as above.
Test [4] has as its target T1, HA-BirA-TRIM2^WT (human). As to the kind of experiment: proximity labelling; ubiquitin-specific proximity labelling: HEK 293-T co-transfected with AviTag-Ub and HA-BirA-TRIM2, 100 µM biotin, 0.5 µM Carfilzomib for 5 h; streptavidin pull-down, TMT quantitative MS; enrichment against HA-BirA and HA-BirA-TRIM2 C60S. This is another data set of the same source.

Like-named read-outs stand apart in the source and are kept apart here. These are yes or no findings as the source states them, for the method shown. Binding seen in cells or lysates may run through a third protein. These calls come from enrichment with a bait or labelling near it, and not all partners need be listed. For some of these results: Tags and fused reporters may be left off the sequences shown.

On to TRAF3 (from UniProt Q13114 1-568), for which the binding result with HA-BirA-TRIM2^WT (human) [1] is “binds”.
In the case of HGS (from UniProt O14964 1-777), the binding entry in the test with HA-BirA-TRIM2^WT (human) [1] was “binds”.
On the same count and under the same terms, for TRIM25 (from UniProt Q14258 1-630) the value was “binds”.
As for SLC20A1 (from UniProt Q8WUM9 1-679), the binding result with HA-BirA-TRIM2^WT (human) [1] is “binds”.
STAM (from UniProt Q92783 1-540): the binding entry with HA-BirA-TRIM2^WT (human) [1] was “binds”.
As for ITM2B (from UniProt Q9Y287 1-266), the binding result (in test [2]; in test [3]; in the test with HA-BirA-TRIM2^WT (human) [1]) was “binds” throughout.

B1: PDIA6 (protein, UniProt Q15084 20-440)
chain: LYSSSDDVIELTPSNFNREVIQSDSLWLVEFYAPWCGHCQRLTPEWKKAATALKDVVKVGAVDADKHHSLGGQYGVQGFPTIKIFGSNKNRPEDYQGGRTGEAIVDAALSALRQLVKDRLGGRSGGYSSGKQGRSDSSSKKDVIELTDDSFDKNVLDSEDVWMVEFYAPWCGHCKNLEPEWAAAASEVKEQTKGKVKLAAVDATVNQVLASRYGIRGFPTIKIFQKGESPVDYDGGRTRSDIVSRALDLFSDNAPPPELLEIINEDIAKRTCEEHQLCVVAVLPHILDTGAAGRNSYLEVLLKLADKYKKKMWGWLWTEAGAQSELETALGIGGFGYPAMAAINARKMKFALLKGSFSEQGINEFLRELSFGRGSTAPVGGGAFPTIVEREPWDGRDGELPVEDDIDLSDVELDDLGKDEL
Take B1: the binding entry in test [2] and in test [3] was “binds” in each case.

B2: RABEP2 (protein, UniProt Q9H5N1 1-569)
chain: MAAAAPVAADDDERRRRPGAALEDSRSQEGANGEAESGELSRLRAELAGALAEMETMKAVAEVSESTKAEAVAAVQRQCQEEVASLQAILKDSISSYEAQITALKQERQQQQQDCEEKERELGRLKQLLSRAYPLDSLEKQMEKAHEDSEKLREIVLPMEKEIEELKAKLLRAEELIQEIQRRPRHAPSLHGSTELLPLSRDPSPPLEPLEELSGDGGPAAEAFAHNCDDSASISSFSLGGGVGSSSSLPQSRQGLSPEQEETASLVSTGTLVPEGIYLPPPGYQLVPDTQWEQLQTEGRQLQKDLESVSRERDELQEGLRRSNEDCAKQMQVLLAQVQNSEQLLRTLQGTVSQAQERVQLQMAELVTTHKCLHHEVKRLNEENQGLRAEQLPSSAPQGSQQEQGEEESLPSSVPELQQLLCCTRQEARARLQAQEHGAERLRIEIVTLREALEEETVARASLEGQLRVQREETEVLEASLCSLRTEMERVQQEQSKAQLPDLLSEQRAKVLRLQAELETSEQVQRDFVRLSQALQVRLERIRQAETLEQVRSIMDEAPLTDVRDIKDT
Turning to B2, the binding entry with HA-BirA-TRIM2^WT (human) [4] is given as “binds”.

B3: ITM2C (protein, UniProt Q9NQX7 1-267)
chain: MVKISFQPAVAGIKGDKADKASASAPAPASATEILLTPAREEQPPQHRSKRGGSVGGVCYLSMGMVVLLMGLVFASVYIYRYFFLAQLARDNFFRCGVLYEDSLSSQVRTQMELEEDVKIYLDENYERINVPVPQFGGGDPADIIHDFQRGLTAYHDISLDKCYVIELNTTIVLPPRNFWELLMNVKRGTYLPQTYIIQEEMVVTEHVSDKEALGSFIYHLCNGKDTYRLRRRATRRRINKRGAKNCNAIRHFENTFVVETLICGVV
Regarding B3, the binding result in test [2] and in test [3] was “binds” each time.

B4: SNF8 (protein, UniProt Q96H20 1-258)
chain: MHRRGVGAGAIAKKKLAEAKYKERGTVLAEDQLAQMSKQLDMFKTNLEEFASKHKQEIRKNPEFRVQFQDMCATIGVDPLASGKGFWSEMLGVGDFYYELGVQIIEVCLALKHRNGGLITLEELHQQVLKGRGKFAQDVSQDDLIRAIKKLKALGTGFGIIPVGGTYLIQSVPAELNMDHTVVLQLAEKNGYVTVSEIKASLKWETERARQVLEHLLKEGLAWLDLQAPGEAHYWLPALFTDLYSQEITAEEAREALP
Regarding B4, in the test with HA-BirA-TRIM2^WT (human) [4], the binding result is given as “binds”.

B5: IFNGR1 (protein, UniProt P15260 18-489)
chain: EMGTADLGPSSVPTPTNVTIESYNMNPIVYWEYQIMPQVPVFTVEVKNYGVKNSEWIDACINISHHYCNISDHVGDPSNSLWVRVKARVGQKESAYAKSEEFAVCRDGKIGPPKLDIRKEEKQIMIDIFHPSVFVNGDEQEVDYDPETTCYIRVYNVYVRMNGSEIQYKILTQKEDDCDEIQCQLAIPVSSLNSQYCVSAEGVLHVWGVTTEKSKEVCITIFNSSIKGSLWIPVVAALLLFLVLSLVFICFYIKKINPLKEKSIILPKSLISVVRSATLETKPESKYVSLITSYQPFSLEKEVVCEEPLSPATVPGMHTEDNPGKVEHTEELSSITEVVTTEENIPDVVPGSHLTPIERESSSPLSSNQSEPGSIALNSYHSRNCSESDHSRNGFDTDSSCLESHSSLSDSEFPPNNKGEIKTEGQELITVIKAPTSFGYDKPHVLVDLLVDDSGKESLIGYRPTEDSKEFS
Consider B5, for which the binding result in test [2] and in test [3] was “binds” throughout.
